Results as given in article PMC10878146.

Biological target: T1, Caspase-11 (in transfected cells) (mouse) (UniProt P70343)
T1 sequence: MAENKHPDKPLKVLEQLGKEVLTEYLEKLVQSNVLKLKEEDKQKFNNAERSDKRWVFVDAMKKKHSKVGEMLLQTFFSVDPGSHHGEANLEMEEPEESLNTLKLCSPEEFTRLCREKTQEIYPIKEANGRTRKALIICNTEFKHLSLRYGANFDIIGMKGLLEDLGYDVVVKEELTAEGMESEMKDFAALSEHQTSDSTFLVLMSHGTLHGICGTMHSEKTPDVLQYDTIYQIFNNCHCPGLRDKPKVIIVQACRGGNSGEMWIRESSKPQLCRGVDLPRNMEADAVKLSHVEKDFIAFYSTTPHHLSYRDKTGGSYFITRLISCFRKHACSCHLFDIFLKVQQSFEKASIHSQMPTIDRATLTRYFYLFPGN
Assay: co-IP; cells (iBMDM) overexpressing the indicated plasmid combinations, with or without overexpressed P300 or SIRT1; MG132 to inhibit protein degradation

With HA-NEDD4 K33R (mouse) the binding was “binds”.

Results are given in words; binding and its absence hold for the method and conditions named. In cells and extracts the contact can be indirect. A result given as binding can be weak or reduced; the word gives no strength.
